{"source": "the supplement of paper PMC8728848", "binders": {"B1": {"name": "Epf (Streptococcus pyogenes) (protein)", "chain": "GDHGPEFNGVMVVKAAEAEELPDDLMNFKGTWEVSADGSSGRFFSKGATDSYVFHLIPAKDVKKPGWREHNEVKDSYIKIDKQSIAARYKTSTTAPYSVAFKVNTKSLIKDHDYKITFEQGQIASGITVDYRIGSAFNKTTDDSFKISDESKYASNVKIEGEEQGFKQREQGDKTISFRTLKEGPMSLVLLSKVEKKPQGDLDVEFKNLKIIDVTNPSQLDKGVAYVGNKNVQLTLKSDDGRTNFEGDEISLFNSRGELLQTVTVTKDQQNPISITLSEDQAKSLKNKEKLKVSIKQKQSKKTSKDFFFEVGIDPKVEAKQKEKLLELDKVKKQIEDSINGDAWLPEKPVDLQGDHGLSAWSHPQFEK"}}, "assay_in_all_cases": "glycan array binding signal (z-score within array); higher = stronger binding", "details_in_all_cases": "glycan notation: IUPAC condensed, linker removed", "key": {"[1]": {"molecular_target": "Fuc(a1-3)[Gal(b1-4)]GlcNAc(b1-4)Gal(b1-4)[Fuc(a1-3)]GlcNAc", "outline": "(§1)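 Arrays were curated from the Consortium for Functional Glycomics database, 3228 in total, and kept only where the protein sequence was available. Binding is expressed as a within-array Z-score. This score was averaged across arrays of the same protein sequence at different concentrations or buffers and across linkers, and negative values can be read as non-binding.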"}, "[2]": {"molecular_target": "Fuc(a1-3)[Gal(b1-4)]GlcNAc(b1-4)Gal(b1-4)[Fuc(a1-3)]GlcNAc(b1-4)Gal(b1-4)[Fuc(a1-3)]GlcNAc", "outline": "as §1"}, "[3]": {"molecular_target": "Fuc(a1-3)[Gal(b1-4)]GlcNAc(b1-6)GalNAc", "outline": "as §1"}, "[4]": {"molecular_target": "Fuc(a1-3)[Gal(b1-4)]GlcNAc(b1-6)[Gal(b1-3)GlcNAc(b1-3)]Gal(b1-4)Glc", "outline": "as §1"}, "[5]": {"molecular_target": "Fuc(a1-3)[Gal(b1-4)]GlcNAc6S", "outline": "as §1"}, "[6]": {"molecular_target": "Fuc(a1-3)[Gal3S(b1-4)]Glc", "outline": "as §1"}, "[7]": {"molecular_target": "Fuc(a1-3)[Gal3S(b1-4)]GlcNAc", "outline": "as §1"}, "[8]": {"molecular_target": "Fuc(a1-3)[Gal3S(b1-4)]GlcNAc6S", "outline": "as §1"}, "[9]": {"molecular_target": "Fuc(a1-3)[GalNAc(b1-4)]GlcNAc", "outline": "as §1"}, "[10]": {"molecular_target": "Fuc(a1-3)[GalNAc(b1-4)]GlcNAc6S", "outline": "as §1"}, "Fuc(a1-4)GlcNAc": {"molecular_target": "Fuc(a1-4)GlcNAc", "outline": "as §1"}, "Fuc(b1-3)GlcNAc": {"molecular_target": "Fuc(b1-3)GlcNAc", "outline": "as §1"}, "Gal(a1-2)Gal": {"molecular_target": "Gal(a1-2)Gal", "outline": "as §1"}, "Gal(a1-3)Gal": {"molecular_target": "Gal(a1-3)Gal", "outline": "as §1"}, "Gal(a1-3)Gal(b1-3)GlcNAc": {"molecular_target": "Gal(a1-3)Gal(b1-3)GlcNAc", "outline": "as §1"}, "[11]": {"molecular_target": "Gal(a1-3)Gal(b1-3)GlcNAc(b1-2)Man", "outline": "as §1"}, "[12]": {"molecular_target": "Gal(a1-3)Gal(b1-3)GlcNAc(b1-2)Man(a1-3)[Gal(a1-3)Gal(b1-3)GlcNAc(b1-2)Man(a1-6)]Man(b1-4)GlcNAc(b1-4)GlcNAc", "outline": "as §1"}, "[13]": {"molecular_target": "Gal(a1-3)Gal(b1-3)GlcNAc(b1-3)GalNAc", "outline": "as §1"}, "[14]": {"molecular_target": "Gal(a1-3)Gal(b1-3)GlcNAc(b1-6)GalNAc", "outline": "as §1"}, "[15]": {"molecular_target": "Gal(a1-3)Gal(b1-3)[Fuc(a1-4)]GlcNAc(b1-2)Man(a1-3)[Gal(a1-3)Gal(b1-3)[Fuc(a1-4)]GlcNAc(b1-2)Man(a1-6)]Man(b1-4)GlcNAc(b1-4)GlcNAc", "outline": "as §1"}, "Gal(a1-3)Gal(b1-4)Glc": {"molecular_target": "Gal(a1-3)Gal(b1-4)Glc", "outline": "as §1"}, "Gal(a1-3)Gal(b1-4)GlcNAc": {"molecular_target": "Gal(a1-3)Gal(b1-4)GlcNAc", "outline": "as §1"}, "[16]": {"molecular_target": "Gal(a1-3)Gal(b1-4)GlcNAc(b1-2)Man", "outline": "as §1"}, "[17]": {"molecular_target": "Gal(a1-3)Gal(b1-4)GlcNAc(b1-2)Man(a1-3)[Gal(a1-3)Gal(b1-4)GlcNAc(b1-2)Man(a1-6)]Man(b1-4)GlcNAc(b1-4)GlcNAc", "outline": "as §1"}, "[18]": {"molecular_target": "Gal(a1-3)Gal(b1-4)GlcNAc(b1-3)GalNAc", "outline": "as §1"}, "[19]": {"molecular_target": "Gal(a1-3)Gal(b1-4)GlcNAc(b1-6)GalNAc", "outline": "as §1"}, "[20]": {"molecular_target": "Gal(a1-3)Gal(b1-4)[Fuc(a1-3)]GlcNAc", "outline": "as §1"}, "[21]": {"molecular_target": "Gal(a1-3)Gal(b1-4)[Fuc(a1-3)]GlcNAc(b1-2)Man(a1-3)[Gal(a1-3)Gal(b1-4)[Fuc(a1-3)]GlcNAc(b1-2)Man(a1-6)]Man(b1-4)GlcNAc(b1-4)GlcNAc", "outline": "as §1"}, "Gal(a1-3)GalNAc": {"molecular_target": "Gal(a1-3)GalNAc", "outline": "as §1"}, "[22]": {"molecular_target": "Gal(a1-3)[Gal(a1-4)]Gal(b1-4)GlcNAc", "outline": "as §1"}, "[23]": {"molecular_target": "Gal(a1-4)Gal(b1-3)GlcNAc(b1-2)Man(a1-3)[Gal(a1-4)Gal(b1-3)GlcNAc(b1-2)Man(a1-6)]Man(b1-4)GlcNAc(b1-4)GlcNAc", "outline": "as §1"}, "Gal(a1-4)Gal(b1-4)Glc": {"molecular_target": "Gal(a1-4)Gal(b1-4)Glc", "outline": "as §1"}, "Gal(a1-4)Gal(b1-4)GlcNAc": {"molecular_target": "Gal(a1-4)Gal(b1-4)GlcNAc", "outline": "as §1"}, "[24]": {"molecular_target": "Gal(a1-4)Gal(b1-4)GlcNAc(b1-2)Man(a1-3)[Gal(a1-4)Gal(b1-4)GlcNAc(b1-2)Man(a1-6)]Man(b1-4)GlcNAc(b1-4)GlcNAc", "outline": "as §1"}, "[25]": {"molecular_target": "Gal(a1-4)Gal(b1-4)GlcNAc(b1-3)Gal(b1-4)Glc", "outline": "as §1"}, "Gal(a1-4)GlcNAc": {"molecular_target": "Gal(a1-4)GlcNAc", "outline": "as §1"}, "Gal(a1-6)Glc": {"molecular_target": "Gal(a1-6)Glc", "outline": "as §1"}, "Gal(b1-2)Gal": {"molecular_target": "Gal(b1-2)Gal", "outline": "as §1"}}, "note": "This is one part of the list.", "data": [{"binder": "B1", "values": [{"measurement": "glycan array binding signal (z-score)", "setting": "[1]", "value": -0.114}, {"measurement": "glycan array binding signal (z-score)", "setting": "[2]", "value": 0.94}, {"measurement": "glycan array binding signal (z-score)", "setting": "[3]", "value": 0.716}, {"measurement": "glycan array binding signal (z-score)", "setting": "[4]", "value": -2.21}, {"measurement": "glycan array binding signal (z-score)", "setting": "[5]", "value": -0.251}, {"measurement": "glycan array binding signal (z-score)", "setting": "[6]", "value": 0.034}, {"measurement": "glycan array binding signal (z-score)", "setting": "[7]", "value": 0.269}, {"measurement": "glycan array binding signal (z-score)", "setting": "[8]", "value": -1.22}, {"measurement": "glycan array binding signal (z-score)", "setting": "[9]", "value": 2.73}, {"measurement": "glycan array binding signal (z-score)", "setting": "[10]", "value": 0.079}, {"measurement": "glycan array binding signal (z-score)", "setting": "Fuc(a1-4)GlcNAc", "value": -0.354}, {"measurement": "glycan array binding signal (z-score)", "setting": "Fuc(b1-3)GlcNAc", "value": -1.2}, {"measurement": "glycan array binding signal (z-score)", "setting": "Gal(a1-2)Gal", "value": 1.09}, {"measurement": "glycan array binding signal (z-score)", "setting": "Gal(a1-3)Gal", "value": -0.937}, {"measurement": "glycan array binding signal (z-score)", "setting": "Gal(a1-3)Gal(b1-3)GlcNAc", "value": -0.595}, {"measurement": "glycan array binding signal (z-score)", "setting": "[11]", "value": 0.135}, {"measurement": "glycan array binding signal (z-score)", "setting": "[12]", "value": 1.25}, {"measurement": "glycan array binding signal (z-score)", "setting": "[13]", "value": -0.106}, {"measurement": "glycan array binding signal (z-score)", "setting": "[14]", "value": -0.273}, {"measurement": "glycan array binding signal (z-score)", "setting": "[15]", "value": 1.08}, {"measurement": "glycan array binding signal (z-score)", "setting": "Gal(a1-3)Gal(b1-4)Glc", "value": -0.524}, {"measurement": "glycan array binding signal (z-score)", "setting": "Gal(a1-3)Gal(b1-4)GlcNAc", "value": 0.546}, {"measurement": "glycan array binding signal (z-score)", "setting": "[16]", "value": 0.554}, {"measurement": "glycan array binding signal (z-score)", "setting": "[17]", "value": 0.368}, {"measurement": "glycan array binding signal (z-score)", "setting": "[18]", "value": 0.087}, {"measurement": "glycan array binding signal (z-score)", "setting": "[19]", "value": -1.75}, {"measurement": "glycan array binding signal (z-score)", "setting": "[20]", "value": 0.471}, {"measurement": "glycan array binding signal (z-score)", "setting": "[21]", "value": 0.862}, {"measurement": "glycan array binding signal (z-score)", "setting": "Gal(a1-3)GalNAc", "value": 0.627}, {"measurement": "glycan array binding signal (z-score)", "setting": "[22]", "value": 1.59}, {"measurement": "glycan array binding signal (z-score)", "setting": "[23]", "value": -0.909}, {"measurement": "glycan array binding signal (z-score)", "setting": "Gal(a1-4)Gal(b1-4)Glc", "value": -0.675}, {"measurement": "glycan array binding signal (z-score)", "setting": "Gal(a1-4)Gal(b1-4)GlcNAc", "value": 1.3}, {"measurement": "glycan array binding signal (z-score)", "setting": "[24]", "value": 1.34}, {"measurement": "glycan array binding signal (z-score)", "setting": "[25]", "value": -0.066}, {"measurement": "glycan array binding signal (z-score)", "setting": "Gal(a1-4)GlcNAc", "value": -1.69}, {"measurement": "glycan array binding signal (z-score)", "setting": "Gal(a1-6)Glc", "value": 0.543}, {"measurement": "glycan array binding signal (z-score)", "setting": "Gal(b1-2)Gal", "value": -0.675}]}]}
